Assay results from patent US20190359698A1.
Results are given in words; binding and its absence hold for the method and conditions named. Some results given as binding are weak or reduced against the parent protein; the word gives no strength.

Target: GPC3 N-terminal fragment (polypeptide consisting of the amino acid sequence represented by SEQ ID NO: 155) (human) (UniProt P09619)
Experiment: FCM of IgG on GPC3 N-terminal fragment-expressing cell line

binding: binds
B1: IgG clone TF1413-03e004 (antibody, V domains shown)
VH: QVQLKQSGAELVKPGAPVKLSCKASGYTFTSYWMNWVKQRPGRGLEWIGRIDPSDSETHYNQKFKDKATLTVDKSSSTAYIQLSSLTSEDSAVYYCARGYYGSNYWGQGTTLTVSS
VL: DIKMTQSPKFMSTSVGDRVSVTCKASQNVGTNVAWYQQKPGQSPKALIYSASYRYSGVPDRFTGSGSGTDFTLTISNVQSEDLAEYFCQQYNSYPLTFGAGTKLELKR
